{
  "source": "patent US6770738B1",
  "about": "“Higher order structure and binding of peptide nucleic acids” (ISIS Pharmaceuticals, Inc., priority 1992, dated 2004)",
  "tested_on": "complimentary dsDNA targets",
  "assay": "Gel-retardation assay of PNA-dsDNA complex stability",
  "type": "binding",
  "details": "transferred from TE-buffer to transcription assay-buffer",
  "note": "Some entries share one result that the patent states for a list of compounds.",
  "data": [
    {"substance": "H-T4CT2CT2LysNH2 [PNA H-T4CT2CT2LysNH2]", "values": [
      {"measurement": "time complexes are stable", "result": "at least 15 min"}
    ]},
    {"substance": "H-T10LysNH2 [PNA H-T10-LysNH2]", "values": [
      {"measurement": "time complexes are stable", "result": "at least 15 min"}
    ]}
  ]
}
